We go through three molecules from patent US20120020878A1, “FUSOGENIC PROPERTIES OF SAPOSIN C AND RELATED PROTEINS AND PEPTIDES FOR APPLICATION TO TRANSMEMBRANE DRUG DELIVERY SYSTEMS” (CHILDREN'S HOSPITAL MEDICAL CENTER, priority 2008, published 2012).

The data set is described as follows: Circular dichroism (195-250 nm) analyses of saposins with various phospholipids. It is filed as physicochemical. The text has this:
To determine the specificity of saposin C-phospholipid interaction, a liposomal system is developed using CD, fluorescence emission shifts, and fluorescence quenching methods. Mutated saposins C's, produced to contain individual Trp (W), are termed saposin C(0W), (S37W), and (81W). These Trp-labeled saposin C's are as follows: saposin C(0W) has a Trp preceding the first NH2-terminal amino acid of mature saposin C, saposin C(S37W) has a Trp at residue 37 (i.e., in the middle), and saposin C(81W) has a Trp after the last COOH-terminal amino acid. These substitutions had no effect on the activation properties or CD spectra of saposin C.
Using CD spectroscopy, relative secondary structural changes of recombinant saposins are induced by membrane binding.
No changes are observed with saposin A and B in the PS (18:1,1) complexes. […] The CD data are collected on a Jasco 710 instrument, and deconvoluted using Yang's method (see Chang, C. T., Wu, C. S., and Yang, J. T. Anal. Biochem (1978) 91, 13-31).
Background: CD spectra are sensitive to the conformation of chiral molecules.

B1: Saposin B: recombinant saposin B, member of the saposin family derived from prosaposin (protein, UniProt P07602 195-273, looked up)
Saposin-B: GDVCQDCIQMVTDIQTAVRTNSTFVQALVEHVKEECDRLGPGMADICKNYISQYSEIAIQMMMHMQPKEICALVGFCDE
modifications: Saposin-B
notes: recombinant saposin B, member of the saposin family derived from prosaposin
Regarding B1, the “relative secondary structural changes induced by membrane binding” value is “No changes”.

B2: Saposin A: saposin A, member of the saposin family derived from prosaposin (protein, UniProt P07602 60-142, looked up)
Saposin-A: SLPCDICKDVVTAAGDMLKDNATEEEILVYLEKTCDWLPKPNMSASCKEIVDSYLPVILDIIKGEMSRPGEVCSALNLCESLQ
modifications: Saposin-A
notes: saposin A, member of the saposin family derived from prosaposin
B2: the “relative secondary structural changes induced by membrane binding” value was “No changes”.

B3: saposin C(S37W): saposin C with a Trp at residue 37 (i.e., in the middle) (protein, UniProt P07602 311-390, looked up, variant S37W)
Saposin-C: SDVYCEVCEFLVKEVTKLIDNNKTEKEILDAFDKMCWKLPKSLSEECQEVVDTYGSSILSILLEEVSPELVCSMLHLCSG
modifications: Saposin-C
Regarding B3, the “effect of Trp substitution on CD spectra” value was “no effect”.
